The experiment deals with HA-NEDD4 (neuronal precursor cell-expressed, developmentally down-regulated gene 4, E3 ubiquitin ligase) (UniProt P46934). Nature of the experiment: co-IP; HEK293 cells co-expressing RER1 and NEDD4; NEDD4 immunoprecipitated, RER1 detected by blot; negative control with nonreactive serum; 1% CHAPS, 50 mM Tris pH 7.4, 150 mM NaCl, 5 mM EDTA, 4°C overnight, Protein A agarose.

Protein sequences, listed by entry. Tags and fused reporters are not part of them.
UniProt P46934: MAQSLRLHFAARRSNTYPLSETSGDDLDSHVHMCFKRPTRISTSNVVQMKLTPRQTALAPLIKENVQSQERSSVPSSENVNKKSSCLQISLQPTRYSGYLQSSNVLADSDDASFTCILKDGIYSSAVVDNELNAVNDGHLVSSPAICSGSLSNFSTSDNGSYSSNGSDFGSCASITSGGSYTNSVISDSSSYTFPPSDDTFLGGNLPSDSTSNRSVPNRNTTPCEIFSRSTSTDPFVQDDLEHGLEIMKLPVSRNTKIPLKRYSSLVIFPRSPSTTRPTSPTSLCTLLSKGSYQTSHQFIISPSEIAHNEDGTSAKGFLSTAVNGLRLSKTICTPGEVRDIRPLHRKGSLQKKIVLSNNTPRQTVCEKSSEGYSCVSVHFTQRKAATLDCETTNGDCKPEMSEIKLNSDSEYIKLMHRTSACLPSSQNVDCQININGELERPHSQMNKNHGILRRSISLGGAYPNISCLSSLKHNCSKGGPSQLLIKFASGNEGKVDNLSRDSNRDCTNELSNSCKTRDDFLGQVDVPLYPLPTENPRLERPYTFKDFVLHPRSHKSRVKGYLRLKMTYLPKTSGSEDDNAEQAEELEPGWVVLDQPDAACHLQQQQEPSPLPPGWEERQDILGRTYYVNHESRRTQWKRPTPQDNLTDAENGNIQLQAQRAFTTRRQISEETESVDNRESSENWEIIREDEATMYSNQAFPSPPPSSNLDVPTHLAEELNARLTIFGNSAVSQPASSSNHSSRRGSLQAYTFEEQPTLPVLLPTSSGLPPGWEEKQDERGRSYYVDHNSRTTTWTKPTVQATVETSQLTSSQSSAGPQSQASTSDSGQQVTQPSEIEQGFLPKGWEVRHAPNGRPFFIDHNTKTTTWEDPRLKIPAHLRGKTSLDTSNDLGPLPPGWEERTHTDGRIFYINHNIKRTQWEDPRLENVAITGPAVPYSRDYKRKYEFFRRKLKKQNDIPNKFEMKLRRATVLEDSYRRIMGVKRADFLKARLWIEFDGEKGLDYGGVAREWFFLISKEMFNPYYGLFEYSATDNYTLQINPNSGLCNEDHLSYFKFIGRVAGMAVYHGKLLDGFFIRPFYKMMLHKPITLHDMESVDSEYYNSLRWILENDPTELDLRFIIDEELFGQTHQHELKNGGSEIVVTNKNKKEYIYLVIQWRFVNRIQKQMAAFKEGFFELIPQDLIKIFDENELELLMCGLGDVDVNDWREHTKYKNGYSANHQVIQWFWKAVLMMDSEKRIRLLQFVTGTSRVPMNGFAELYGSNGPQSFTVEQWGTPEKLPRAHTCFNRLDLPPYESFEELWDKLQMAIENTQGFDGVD

The results in this text go back to PMC5587320.

These are yes or no findings as the source states them, for the method shown. In cells and extracts the contact can be indirect. Some results given as binding are weak or reduced against the parent protein; the word gives no strength.

B1: Retention in endoplasmic reticulum 1 (RER1), human wild type (protein, UniProt O15258 1-196)
chain: MSEGDSVGESVHGKPSVVYRFFTRLGQIYQSWLDKSTPYTAVRWVVTLGLSFVYMIRVYLLQGWYIVTYALGIYHLNLFIAFLSPKVDPSLMEDSDDGPSLPTKQNEEFRPFIRRLPEFKFWHAATKGILVAMVCTFFDAFNVPVFWPILVMYFIMLFCITMKRQIKHMIKYRYIPFTHGKRRYRGKEDAGKAFAS
In the case of B1, the binding entry was “binds”.
